From PubChem BioAssay AID504444 (National Center for Advancing Translational Sciences (NCATS), 2011)
In all, about 360,000 compounds went through this assay and about 7,500 (2.1%) were called active. The shares of active, inactive and inconclusive entries below differ from those in the screen. Calls come from the whole dose curve; as a rule, active = well fitted inhibition curve with a large enough effect; inconclusive = small, poorly fitted or top-dose-only effect, or effect the other way; inactive = flat fitted curve, though single readings scatter. Potencies beside an inconclusive call are fits to weak or partial responses and may not hold up.

Test: Nrf2 qHTS screen for inhibitors; note: nearly all actives have a fitted effect of over 60% in size
Settings: A549 ARE-Fluc reporter, luciferase luminescence, 18-24 h; activity change, negative = inhibition: at 46 µM (top of the series)
Outline: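 A549 ARE_Fluc cells, 5000/well, 5% FBS OPTI-MEM; compounds in dose-response, 18-24 h at 37 °C/5% CO2; CellTiter-Fluor viability read (Ex 405/Em 525), then BugLite luciferase luminescence = Nrf2 activity.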
% is set by controls: 0 for no effect and ±100 for the full control effect; potency is the fitted concentration of half-maximal effect.

SMILES	Potency	activity change, negative = inhibition
O=C(O)c1cc(NN=C2CCN(Cc3ccccc3)CC2)ccc1Cl	inconclusive: 18.4 µM [activator, single point]	
CCCS(=O)(=O)N1CC(=O)N(c2cccc(Cl)c2C)C(C)(C(=O)NC2CCCC2)C1 (stereo unspecified)		inactive: -26%
Cc1cc(-c2ccc(C)c(S(=O)(=O)NCc3cccc(Br)c3)c2)on1	inconclusive: 29.1 µM [falling, partial curve, poor fit]	
CCOC(=O)c1sc(NC(=O)CSc2nc(C)cc(C(F)(F)F)n2)c(C#N)c1C	inconclusive: 29.1 µM [falling, single point]	
O=C(NCc1ccco1)c1csc(Nc2ccccc2Cl)n1	inconclusive: 29.1 µM [falling, partial curve, poor fit]	
CN(C)S(=O)(=O)N1CCC(CCCC2CCN(S(=O)(=O)N(C)C)CC2)CC1	inconclusive: 5.8 µM [falling, partial curve]	
CC(C)CCNc1nc2c(c(=O)n(Cc3cccc(F)c3)c(=O)n2C)n1C	inconclusive: 20.6 µM [falling, single point]	
Cc1ccc(OCCNC(=O)c2ccc(C)cc2)cc1	inconclusive: 8.2 µM [activator, partial curve, poor fit]	
COc1ccc(N(C)S(=O)(=O)c2cccc(C(=O)Nc3nc4ccccc4[nH]3)c2)cc1	active: 23.1 µM	
CCOCCCNC(=O)c1cnc2sc(N3CCCCC3)nn2c1=O	inconclusive: 29.1 µM [activator, single point]	
Cc1csc(NC(=O)NC2(C(F)(F)F)Oc3ccccc3O2)n1	inconclusive: 25.9 µM [activator, partial curve]	
CCCCCn1c(CCNC(=O)c2ccc(F)cc2)nc2ccccc21		inactive: 6.85% [at 9.27 µM]
COc1ccccc1NC(=O)c1oc2ccccc2c1NC(=O)c1cccc(OC)c1OC		inactive: -2.63%
O=C(NCc1cccnc1)C(=O)NCC(c1ccco1)N1CCN(c2ccc(F)cc2)CC1 (stereo unspecified)	active: 20.6 µM	
O=C1S/C(=C\c2ccccc2)C(=O)N1CC(O)Cn1c2ccccc2c2ccccc21 (stereo unspecified)	inconclusive: 3.26 µM [activator, partial curve]	
COC(CNC(=O)c1ccc2c(c1)ncn2C1CCCCCC1)OC		inactive: 0.0933%
Cc1ccc(NC(=O)Cc2cccs2)cc1Cl	inconclusive: 29.1 µM [activator, single point]	
COc1ccccc1C(=O)Nc1ccc2c(C)cc(=O)oc2c1	inconclusive: 8.2 µM [activator, partial curve]	
Cc1cccc(-n2nc(C(=O)c3ccco3)cc(-c3nc4ccccc4[nH]3)c2=N)c1		inactive: 2.35%
COc1ccc(-c2cn3ccc4ccccc4c3n2)cc1	inconclusive: 1.03 µM [activator, full curve]	
CC(C)NC(=O)NC(=O)COC(=O)c1cc[n+]([O-])cc1	inconclusive: 4.11 µM [falling, partial curve, poor fit]	
COc1ccc(OC)c(C(=O)COC(=O)c2ccc(C)o2)c1		inactive: -4.93%

SMILES	Potency	activity change, negative = inhibition
COc1ccc(CNC(=O)c2nc(SCc3ccccc3F)ncc2Cl)cc1	inconclusive: 23.1 µM [falling, partial curve, poor fit]	
C/C(=N\NC(=O)c1ccc(O)cc1)c1cc2ccccc2o1	inconclusive: 20.6 µM [activator, single point]	
Fc1ccccc1Cc1cn2cc(-c3ccc(Cl)cc3)nc2s1	inconclusive: 2.31 µM [activator, partial curve]	
COc1cccc(NC(=O)CN(C)C(C)C(=O)Nc2ccc(S(=O)(=O)N3CCCC3)cc2)c1 (stereo unspecified)	inconclusive: 29.1 µM [falling, single point]	
COc1ccc(C(=O)NC(=S)NNC(=O)c2ccc(NC(=O)C(C)C)cc2)cc1	inconclusive: 23.1 µM [falling, single point]	
CCN(Cc1ccccc1)Cc1ccc(OCc2ccccc2)c(OC)c1	inconclusive: 4.11 µM [activator, partial curve, poor fit]	
O=c1c2ccccc2sn1-c1cc(S(=O)(=O)N2CCOCC2)ccc1N1CCOCC1	inactive	
c1ccc(C2=NNC(=NC3CC3)SC2)cc1	inconclusive: 16.4 µM [falling, single point]	
CCn1nc(C(=O)Nc2nc(-c3ccccn3)cs2)c2ccccc2c1=O	inconclusive: 23.1 µM [falling, partial curve]	
Nc1ccc2ccc(O)cc2c1		inactive: 6.43%
COc1ccc(-c2noc(N3CCC(C(=O)NCc4ccccc4Cl)CC3)n2)cc1	inconclusive: 20.6 µM [falling, single point]	
COC(=O)c1ccc(NC2CC(=O)N(c3ccccc3C)C2=O)cc1 (stereo unspecified)	inconclusive: 2.06 µM [falling, partial curve, poor fit]	
CCOC(=O)c1sc(=NC(=O)c2cccc(C)c2)n(C)c1C	inconclusive: 29.1 µM [activator, single point]	
CCCCc1ccc(S(=O)(=O)NCCCN2CCCC2=O)cc1	inconclusive: 14.6 µM [falling, single point]	
O=C(CN1CCN(c2ccccc2O)CC1)Nc1ccc(S(=O)(=O)N2CCCCCC2)cc1	inconclusive: 16.4 µM [falling, single point]	
COc1ccc2[nH]c3c(C)c4ccncc4c(C)c3c2c1	active: 8.2 µM	
Cc1ccc(NC(=O)Cc2ccc(F)cc2)cc1	inconclusive: 29.1 µM [activator, single point]	
C/C(=N\Nc1nccnc1Cl)c1ccc(Cl)c(Cl)c1	inconclusive: 18.4 µM [activator, single point]	
CC1CCc2c(sc3ncnc(NCCCOC(C)C)c23)C1 (stereo unspecified)	inconclusive: 29.1 µM [falling, single point]	
COc1cc(C(=O)NCc2ccc3[nH]c(C)cc3c2)cc(OC)c1OC	inconclusive: 6.51 µM [falling, partial curve, poor fit]	
CN(CC(=O)N1CCCCCC1)S(=O)(=O)c1ccc(F)cc1	inconclusive: 2.06 µM [activator, full curve, poor fit]	
N#C/C(=C\c1ccc(-c2ccc(Br)cc2)o1)C(=O)NCCc1c[nH]c2ccccc12	inconclusive: 29.1 µM [falling, single point]	

SMILES	Potency	activity change, negative = inhibition
O=[N+]([O-])c1cccnc1N1CCC(c2cc(-c3ccc(Cl)cc3)n[nH]2)CC1	inconclusive: 20.6 µM [falling, single point]	
CCOc1ccc(Cn2c(SCCCCC#N)nc3c2c(=O)n(C)c(=O)n3C)cc1OCC	inconclusive: 18.4 µM [falling, partial curve, poor fit]	
Cc1ccccc1Nc1c(-c2cc(Br)ccc2F)nc2ccccn12		inactive: -3.63%
O=C(CSc1ncnc2c1cnn2-c1cccc(Cl)c1)NCC1CCCO1 (stereo unspecified)	inconclusive: 23.1 µM [falling, partial curve]	
CCN(CC)S(=O)(=O)c1ccc(C(=O)NNc2nc(-c3ccccc3)c3cc(Br)ccc3n2)cc1	inconclusive: 1.3 µM [falling, full curve, poor fit]	
N#Cc1c(/N=C/c2ccc(-c3ccccc3C(=O)O)o2)sc2c1CCCC2	inconclusive: 9.2 µM [activator, partial curve]	
COc1cc(NC(=O)CCS(=O)(=O)c2ccc3c(c2)CC(=O)N3C)cc(OC)c1OC	inconclusive: 18.4 µM [activator, partial curve]	
COc1ccc(NC(=O)C2CC(=O)N/C(=N/N=C/c3ccco3)S2)cc1 (stereo unspecified)	inconclusive: 0.731 µM [activator, partial curve, poor fit]	
O=C(CSc1nnc(-c2ccccc2)n1-c1ccccc1)NCc1ccco1	inconclusive: 10.3 µM [falling, partial curve, poor fit]	
Cc1ccccc1-c1nc2cc(N)ccc2o1	inconclusive: 18.4 µM [activator, partial curve]	
Cc1ccc(C(=O)NC(NCC2CCCO2)C(Cl)(Cl)Cl)cc1 (stereo unspecified)	inconclusive: 32.6 µM [falling, partial curve, poor fit]	
Clc1ccc2nc(N3CCCCC3)sc2c1	inconclusive: 11.6 µM [activator, partial curve]	
O=C(Nc1ccncc1)c1ccc(NS(=O)(=O)c2ccc3[nH]c(=O)[nH]c3c2)cc1		inactive: 4.75%
O=C(Sc1ccccc1)c1cccc(Cn2cc(C(F)(F)F)ccc2=O)c1	inconclusive: 0.326 µM [activator, partial curve, poor fit]	
c1ccc(-c2nnc(CN3CCCc4ccccc43)o2)cc1	inconclusive: 1.3 µM [activator, partial curve, poor fit]	
CCc1nc(NCCC(C)C)c(C#N)c2c1CCCC2		inactive: 11.1%
NC1=C(Cl)C(=O)c2ccc(S(N)(=O)=O)cc2C1=O	active: 3.26 µM	
COC(=O)c1sc2nc3c(cc2c1N)COC(C)(C)C3	inconclusive: 1.84 µM [activator, full curve]	
O=C(Nc1ccc([N+](=O)[O-])cc1)Nc1ccc2c(c1)OCCO2	inconclusive: 4.11 µM [activator, single point]	
CCc1ccc(NC(=O)CN2C(=O)C(c3ccc(Cl)cc3)=NC23CCCCC3)cc1	inconclusive: 5.17 µM [falling, partial curve, poor fit]	
CCC(=O)Nc1ccc(NC(=O)c2ccccc2)nc1	inconclusive: 29.1 µM [falling, single point]	
CN(C)S(=O)(=O)c1ccc(Cl)c(NC(=O)COC(=O)CNC(=O)c2ccco2)c1	inconclusive: 1.03 µM [falling, partial curve, poor fit]	

Shown with bars between the fields: entries from further up
SMILES | Potency | activity change, negative = inhibition
CCN(CC)S(=O)(=O)c1ccc(C(=O)NNc2nc(-c3ccccc3)c3cc(Br)ccc3n2)cc1 | inconclusive: 1.3 µM [falling, full curve, poor fit] | 
N#Cc1c(/N=C/c2ccc(-c3ccccc3C(=O)O)o2)sc2c1CCCC2 | inconclusive: 9.2 µM [activator, partial curve] | 
COc1cc(NC(=O)CCS(=O)(=O)c2ccc3c(c2)CC(=O)N3C)cc(OC)c1OC | inconclusive: 18.4 µM [activator, partial curve] | 
